Laboratory results taken from patent US20120220540A1, “SYNBODIES TO AKT1” (ARIZONA BOARD OF REGENTS FOR AND ON BEHALF OF ARIZONA STATE …, priority 2009, published 2012).
Results are given in words; binding and its absence hold for the method and conditions named. Some entries that bind do so weakly or less than the wild type.

Protein sequences, listed by entry. Tags and fused reporters are not part of them. Lines headed by an entry give the natural chain unless they say otherwise; changes in a name come on top.
UniProt P31749: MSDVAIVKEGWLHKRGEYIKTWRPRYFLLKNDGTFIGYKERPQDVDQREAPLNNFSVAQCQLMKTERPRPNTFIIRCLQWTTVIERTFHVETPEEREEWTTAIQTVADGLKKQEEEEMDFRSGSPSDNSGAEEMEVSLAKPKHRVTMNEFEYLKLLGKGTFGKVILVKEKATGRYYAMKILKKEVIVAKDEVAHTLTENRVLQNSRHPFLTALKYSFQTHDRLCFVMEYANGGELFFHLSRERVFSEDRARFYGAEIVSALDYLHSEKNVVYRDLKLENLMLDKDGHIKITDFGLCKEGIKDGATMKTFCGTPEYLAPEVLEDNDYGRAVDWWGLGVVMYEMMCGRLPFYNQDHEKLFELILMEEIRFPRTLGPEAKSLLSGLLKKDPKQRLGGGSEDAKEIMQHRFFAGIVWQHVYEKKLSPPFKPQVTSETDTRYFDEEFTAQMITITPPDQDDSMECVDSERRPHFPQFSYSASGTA

Columns and labels:
AKT1 [1] = molecular target: T1, AKT1 (human, UniProt P31749 1-480); test: immunofluorescence microscopy of fixed, permeabilised TE671 cells, 50 nM labelled synbody
T1 construct: also called human AKT1; AKT1_HUMAN

AKT1 [2] = molecular target: T1, AKT1; test: immunofluorescence microscopy of fixed, permeabilised TE671 cells stained with 50 nM labeled synbody

binding (AKT1 [1]): binds | binding (AKT1 [2]): binds
B1: 26-23-(PEG2) Alexafluor 488 (designed binder)
chain 1: AHKVVPQRQIRHAYNRYGSG
chain 2: FRGWAHIFFGPHVIYRGGSG
modifications: PEG2 and Alexafluor 488 label; point of attachment not stated
